Results: patent US20170129923A1
No constants are given. Whether binding was seen depends on the method and setting. Some binding calls cover weakened binding; strength is not graded here.

Protein sequences, listed by entry. Tags and fused reporters are not part of them. Residues count along the entry.
UniProt Q15811, residues 1-271: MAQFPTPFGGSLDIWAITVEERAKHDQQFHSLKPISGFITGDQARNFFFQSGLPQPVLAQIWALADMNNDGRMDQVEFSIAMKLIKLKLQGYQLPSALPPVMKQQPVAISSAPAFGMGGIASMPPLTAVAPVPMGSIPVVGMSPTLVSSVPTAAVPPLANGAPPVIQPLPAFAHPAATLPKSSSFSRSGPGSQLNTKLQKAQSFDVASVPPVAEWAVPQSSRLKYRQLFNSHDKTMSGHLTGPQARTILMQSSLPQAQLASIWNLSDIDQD

Target: myc-GrB-EHITSN (UniProt Q15811)
Experiment: overlay (far-western): EC lysates on nitrocellulose overlaid with PenNPF-FITC, detected with FITC Ab

- binding: binds
Binder: RQIKIWFQNRRMKWKKPTGSSSTNPFL (FITC tag (where it is attached is not stated)) [PenNPF-FITC peptide]
